The source of these data is paper PMC6733923.

Amino acid sequences for entries named in this document (tags omitted). A change or cut given only in a name is not applied to a line headed by its entry. Chains listed by the source or under a name are the forms on record and can include a tag or linker. Residues count along the entry.
UniProt Q05397: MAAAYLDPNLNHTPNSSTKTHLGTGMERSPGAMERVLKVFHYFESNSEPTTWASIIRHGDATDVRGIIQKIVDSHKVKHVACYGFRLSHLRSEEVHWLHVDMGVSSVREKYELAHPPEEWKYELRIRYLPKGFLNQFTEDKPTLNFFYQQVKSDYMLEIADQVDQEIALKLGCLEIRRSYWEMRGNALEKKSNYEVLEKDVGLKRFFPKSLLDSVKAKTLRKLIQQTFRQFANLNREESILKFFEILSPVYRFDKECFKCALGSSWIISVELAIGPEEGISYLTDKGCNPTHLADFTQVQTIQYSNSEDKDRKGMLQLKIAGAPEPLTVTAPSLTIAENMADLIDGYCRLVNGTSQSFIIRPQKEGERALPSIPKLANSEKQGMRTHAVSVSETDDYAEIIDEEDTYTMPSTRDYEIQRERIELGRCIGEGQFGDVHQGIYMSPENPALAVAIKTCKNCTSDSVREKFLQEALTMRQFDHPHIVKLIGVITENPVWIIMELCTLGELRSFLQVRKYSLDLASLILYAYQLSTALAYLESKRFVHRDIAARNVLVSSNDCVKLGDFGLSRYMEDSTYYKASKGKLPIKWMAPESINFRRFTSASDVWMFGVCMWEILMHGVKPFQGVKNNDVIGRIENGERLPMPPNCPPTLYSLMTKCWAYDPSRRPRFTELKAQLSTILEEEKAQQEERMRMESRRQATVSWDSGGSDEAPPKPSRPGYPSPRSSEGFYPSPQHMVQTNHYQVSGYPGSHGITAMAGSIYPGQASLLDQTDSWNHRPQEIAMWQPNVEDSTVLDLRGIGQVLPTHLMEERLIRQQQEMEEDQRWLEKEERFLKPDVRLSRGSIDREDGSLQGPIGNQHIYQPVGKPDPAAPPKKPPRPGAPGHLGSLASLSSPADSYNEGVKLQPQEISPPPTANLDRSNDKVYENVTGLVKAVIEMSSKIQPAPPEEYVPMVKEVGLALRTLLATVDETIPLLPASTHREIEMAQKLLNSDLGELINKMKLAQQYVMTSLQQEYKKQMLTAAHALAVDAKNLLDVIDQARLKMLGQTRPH
UniProt Q15717: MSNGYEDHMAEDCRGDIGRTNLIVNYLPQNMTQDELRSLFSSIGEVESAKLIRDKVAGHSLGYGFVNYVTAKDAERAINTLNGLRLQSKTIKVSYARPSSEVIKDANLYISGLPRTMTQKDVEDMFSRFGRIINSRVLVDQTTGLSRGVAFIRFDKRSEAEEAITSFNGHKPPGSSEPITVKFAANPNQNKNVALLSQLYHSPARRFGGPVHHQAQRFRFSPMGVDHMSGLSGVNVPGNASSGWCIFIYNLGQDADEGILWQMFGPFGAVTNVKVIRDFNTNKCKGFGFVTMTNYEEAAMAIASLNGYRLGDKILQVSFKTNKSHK
UniProt O15371: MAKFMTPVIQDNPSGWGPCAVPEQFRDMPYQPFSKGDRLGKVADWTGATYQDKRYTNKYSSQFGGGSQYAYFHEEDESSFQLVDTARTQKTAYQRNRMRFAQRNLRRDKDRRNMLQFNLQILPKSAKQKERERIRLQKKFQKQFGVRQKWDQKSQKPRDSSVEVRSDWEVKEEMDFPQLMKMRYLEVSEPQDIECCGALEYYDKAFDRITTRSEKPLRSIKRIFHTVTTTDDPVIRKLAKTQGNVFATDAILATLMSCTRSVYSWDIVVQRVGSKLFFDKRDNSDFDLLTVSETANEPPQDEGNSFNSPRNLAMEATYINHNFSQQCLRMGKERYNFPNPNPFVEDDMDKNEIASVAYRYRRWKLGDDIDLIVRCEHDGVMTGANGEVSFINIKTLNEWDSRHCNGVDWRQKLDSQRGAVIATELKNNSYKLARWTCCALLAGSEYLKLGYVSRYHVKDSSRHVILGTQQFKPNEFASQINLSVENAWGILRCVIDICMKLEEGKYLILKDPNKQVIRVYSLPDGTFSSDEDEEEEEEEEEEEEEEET
Isoform 4 of Band 4.1-like protein 5 (Q9HCM4-4, form named): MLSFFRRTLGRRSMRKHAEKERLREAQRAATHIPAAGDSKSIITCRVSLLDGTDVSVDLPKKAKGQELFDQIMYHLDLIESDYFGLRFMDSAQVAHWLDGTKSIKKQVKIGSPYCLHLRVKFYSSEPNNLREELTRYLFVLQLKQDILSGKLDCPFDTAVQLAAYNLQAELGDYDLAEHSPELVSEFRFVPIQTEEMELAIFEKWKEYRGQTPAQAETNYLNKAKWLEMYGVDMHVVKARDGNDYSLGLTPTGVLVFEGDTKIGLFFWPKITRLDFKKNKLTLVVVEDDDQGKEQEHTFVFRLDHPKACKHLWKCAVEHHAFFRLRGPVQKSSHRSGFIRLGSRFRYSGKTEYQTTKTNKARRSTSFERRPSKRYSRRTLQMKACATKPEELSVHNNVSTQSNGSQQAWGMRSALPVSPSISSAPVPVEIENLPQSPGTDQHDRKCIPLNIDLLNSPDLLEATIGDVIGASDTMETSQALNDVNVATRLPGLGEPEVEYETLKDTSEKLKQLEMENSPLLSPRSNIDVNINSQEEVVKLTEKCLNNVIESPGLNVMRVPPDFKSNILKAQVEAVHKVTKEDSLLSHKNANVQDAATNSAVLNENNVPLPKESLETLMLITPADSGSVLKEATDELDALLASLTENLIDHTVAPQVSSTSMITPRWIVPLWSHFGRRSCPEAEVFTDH
UniProt P20700: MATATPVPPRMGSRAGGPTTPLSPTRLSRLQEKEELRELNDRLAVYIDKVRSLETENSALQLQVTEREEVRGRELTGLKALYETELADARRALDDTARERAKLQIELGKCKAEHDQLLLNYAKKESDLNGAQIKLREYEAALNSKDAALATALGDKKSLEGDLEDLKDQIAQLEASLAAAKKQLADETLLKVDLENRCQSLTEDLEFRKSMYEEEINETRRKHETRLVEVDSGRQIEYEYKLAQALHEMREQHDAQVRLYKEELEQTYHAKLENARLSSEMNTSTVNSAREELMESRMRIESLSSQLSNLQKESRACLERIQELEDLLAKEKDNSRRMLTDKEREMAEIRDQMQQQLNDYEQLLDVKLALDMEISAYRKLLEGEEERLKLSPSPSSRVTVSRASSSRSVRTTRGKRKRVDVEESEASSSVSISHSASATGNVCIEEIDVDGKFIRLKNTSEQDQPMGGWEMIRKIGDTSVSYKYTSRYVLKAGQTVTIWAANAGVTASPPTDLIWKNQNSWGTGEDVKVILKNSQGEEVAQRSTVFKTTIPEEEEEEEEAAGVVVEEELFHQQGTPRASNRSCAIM
UniProt Q6NVV1: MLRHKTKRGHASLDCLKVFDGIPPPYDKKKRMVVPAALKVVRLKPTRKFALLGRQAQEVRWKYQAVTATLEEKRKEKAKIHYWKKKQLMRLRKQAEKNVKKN
UniProt Q13283: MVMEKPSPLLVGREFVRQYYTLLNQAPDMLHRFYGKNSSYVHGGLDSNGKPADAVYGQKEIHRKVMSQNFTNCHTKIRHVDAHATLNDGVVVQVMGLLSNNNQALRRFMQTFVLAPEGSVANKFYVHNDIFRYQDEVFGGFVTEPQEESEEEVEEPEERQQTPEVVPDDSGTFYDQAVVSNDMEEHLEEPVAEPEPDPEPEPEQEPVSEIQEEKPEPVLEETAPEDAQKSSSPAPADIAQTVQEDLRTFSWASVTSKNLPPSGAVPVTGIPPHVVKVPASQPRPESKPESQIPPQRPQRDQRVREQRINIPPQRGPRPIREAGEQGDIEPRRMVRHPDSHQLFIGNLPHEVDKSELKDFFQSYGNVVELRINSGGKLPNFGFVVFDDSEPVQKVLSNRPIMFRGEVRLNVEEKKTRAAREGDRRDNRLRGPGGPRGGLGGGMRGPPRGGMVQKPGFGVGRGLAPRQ
UniProt Q07157: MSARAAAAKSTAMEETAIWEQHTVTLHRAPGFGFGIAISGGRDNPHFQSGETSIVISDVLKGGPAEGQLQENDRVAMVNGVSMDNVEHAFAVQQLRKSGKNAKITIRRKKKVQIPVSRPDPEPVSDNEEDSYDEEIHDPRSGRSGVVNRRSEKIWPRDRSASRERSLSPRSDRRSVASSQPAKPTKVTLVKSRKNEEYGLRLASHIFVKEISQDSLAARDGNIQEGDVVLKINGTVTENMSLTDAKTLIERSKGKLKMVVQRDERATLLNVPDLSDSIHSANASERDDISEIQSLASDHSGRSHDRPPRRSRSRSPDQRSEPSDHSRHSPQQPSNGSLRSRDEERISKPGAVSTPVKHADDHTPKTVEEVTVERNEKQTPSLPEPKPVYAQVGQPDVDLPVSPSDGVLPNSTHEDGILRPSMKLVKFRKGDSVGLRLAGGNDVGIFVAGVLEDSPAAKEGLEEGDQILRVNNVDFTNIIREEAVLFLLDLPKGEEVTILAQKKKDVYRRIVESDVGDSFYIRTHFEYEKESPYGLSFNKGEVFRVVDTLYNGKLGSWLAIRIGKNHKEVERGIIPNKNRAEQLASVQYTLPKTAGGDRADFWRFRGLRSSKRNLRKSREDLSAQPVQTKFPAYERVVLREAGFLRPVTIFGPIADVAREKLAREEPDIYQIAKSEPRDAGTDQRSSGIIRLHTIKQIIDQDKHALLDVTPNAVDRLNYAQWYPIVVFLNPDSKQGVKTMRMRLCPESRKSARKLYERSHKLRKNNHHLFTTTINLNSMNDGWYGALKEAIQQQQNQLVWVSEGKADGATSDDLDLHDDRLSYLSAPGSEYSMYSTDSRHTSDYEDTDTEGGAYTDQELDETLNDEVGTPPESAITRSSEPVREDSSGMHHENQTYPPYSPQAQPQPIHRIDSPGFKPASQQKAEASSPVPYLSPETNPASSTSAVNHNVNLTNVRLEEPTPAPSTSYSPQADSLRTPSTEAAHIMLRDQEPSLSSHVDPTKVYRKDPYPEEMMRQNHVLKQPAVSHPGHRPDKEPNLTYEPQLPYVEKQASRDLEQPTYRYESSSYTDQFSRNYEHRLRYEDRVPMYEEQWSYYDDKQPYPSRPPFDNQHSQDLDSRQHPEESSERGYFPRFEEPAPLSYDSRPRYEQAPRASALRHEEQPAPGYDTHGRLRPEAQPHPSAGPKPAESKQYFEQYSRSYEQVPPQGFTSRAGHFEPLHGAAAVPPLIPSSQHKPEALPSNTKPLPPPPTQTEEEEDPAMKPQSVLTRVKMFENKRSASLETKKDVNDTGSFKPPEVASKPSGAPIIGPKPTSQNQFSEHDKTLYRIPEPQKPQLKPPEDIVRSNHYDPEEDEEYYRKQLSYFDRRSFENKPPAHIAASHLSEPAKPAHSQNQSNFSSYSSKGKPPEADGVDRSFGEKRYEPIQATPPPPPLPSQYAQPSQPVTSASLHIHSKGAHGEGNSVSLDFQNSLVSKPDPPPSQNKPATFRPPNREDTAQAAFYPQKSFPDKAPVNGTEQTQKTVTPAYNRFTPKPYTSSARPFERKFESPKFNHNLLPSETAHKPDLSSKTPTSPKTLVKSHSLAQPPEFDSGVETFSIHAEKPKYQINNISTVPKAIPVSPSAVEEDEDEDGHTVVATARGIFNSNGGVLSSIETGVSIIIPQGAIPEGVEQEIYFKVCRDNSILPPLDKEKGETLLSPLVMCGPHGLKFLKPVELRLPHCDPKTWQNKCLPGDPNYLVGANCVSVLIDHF
UniProt A0A0C4DH55, residues 24-119: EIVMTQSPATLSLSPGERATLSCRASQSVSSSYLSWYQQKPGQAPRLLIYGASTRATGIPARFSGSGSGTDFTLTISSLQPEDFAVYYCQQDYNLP
UniProt P17844: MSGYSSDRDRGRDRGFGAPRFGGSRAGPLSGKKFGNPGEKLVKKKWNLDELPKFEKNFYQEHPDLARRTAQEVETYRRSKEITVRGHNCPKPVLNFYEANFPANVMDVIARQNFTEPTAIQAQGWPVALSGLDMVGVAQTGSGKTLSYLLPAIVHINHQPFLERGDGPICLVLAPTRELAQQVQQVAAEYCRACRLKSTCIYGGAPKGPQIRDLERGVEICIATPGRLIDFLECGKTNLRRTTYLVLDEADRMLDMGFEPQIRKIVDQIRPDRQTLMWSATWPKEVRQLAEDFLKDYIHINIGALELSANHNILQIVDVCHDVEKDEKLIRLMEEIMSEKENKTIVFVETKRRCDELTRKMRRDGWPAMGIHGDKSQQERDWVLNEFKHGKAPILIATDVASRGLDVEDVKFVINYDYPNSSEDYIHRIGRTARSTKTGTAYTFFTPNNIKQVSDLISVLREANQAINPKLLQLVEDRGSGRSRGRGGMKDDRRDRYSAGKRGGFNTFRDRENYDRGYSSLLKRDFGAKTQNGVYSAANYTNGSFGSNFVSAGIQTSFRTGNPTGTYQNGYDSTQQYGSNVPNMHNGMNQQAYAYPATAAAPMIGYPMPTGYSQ
UniProt P21796: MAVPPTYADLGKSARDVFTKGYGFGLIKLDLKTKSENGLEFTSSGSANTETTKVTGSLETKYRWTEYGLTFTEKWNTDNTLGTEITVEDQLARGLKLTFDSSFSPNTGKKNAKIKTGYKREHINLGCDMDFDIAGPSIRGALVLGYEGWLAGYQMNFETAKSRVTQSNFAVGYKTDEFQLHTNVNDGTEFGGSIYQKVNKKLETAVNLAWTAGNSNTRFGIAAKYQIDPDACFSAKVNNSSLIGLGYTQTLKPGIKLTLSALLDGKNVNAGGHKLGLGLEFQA

No constants are given. Whether binding was seen depends on the method and setting. Binding seen in cells or lysates may run through a third protein. These calls come from enrichment with a bait or labelling near it, and not all partners need be listed.

The target of this assay is Focal adhesion kinase 1 (human (endogenous in HCT-116)) (UniProt Q05397). The assay is described as follows: affinity purification with mass spectrometry; anti-FAK polyclonal antibody and Protein A/G agarose on 1.5 mg HCT-116 total cell lysate, cells untreated (regular IP) or stimulated with 10 ng/ml EGF for 30 min; rabbit IgG as control; 1D SDS-PAGE, in-gel trypsin digestion, nano-LC-MS/MS; the proteins of Table 2 were found only with EGF ….
As to “5′-3′ exoribonuclease 1 (from UniProt Q8IZH2-1 1-1706)”, the binding entry is listed as “binds”. The entry for “ATP-dependent RNA helicase DDX3X (from UniProt O00571 1-662)” is “binds”; for “Alpha-actinin-4 (from UniProt O43707 1-911)” it is “binds”; for Annexin A2 (from UniProt P07355 1-339) it is “binds”.

As to “Cleavage and polyadenylation specificity factor subunit 6 (from UniProt Q16630-2 1-588)”, the binding result is listed as “binds”. The entry for “Desmoplakin (from UniProt P15924-1 1-2871)” is “binds”.

“E3 ubiquitin-protein ligase RING2 (from UniProt Q99496 1-336)”: the binding entry is given as “binds”. The entry for “ELAV-like protein 1 (from UniProt Q15717 1-326)” is “binds”. The entry for “Elongation factor 1-alpha 1 (from UniProt P68104 1-462)” is “binds”. For “Eukaryotic translation initiation factor 3 subunit D (from UniProt O15371 1-548)”, the binding result is “binds”. For “Filaggrin-2 (from UniProt Q5D862 1-2391)”, the binding entry was “binds”.

Regarding Filamin-A (from UniProt P21333 1-2647), the binding result is recorded as “binds”. As for Filamin-C (from UniProt Q14315 1-2725), the entry is “binds”; as for “Growth factor receptor-bound protein 7 (from UniProt Q14451 1-532)”, “binds”. As for “Heat shock protein HSP 90-beta (from UniProt P08238 1-724)”, the entry is “binds”; as for “Heterogeneous nuclear ribonucleoprotein A3 (from UniProt P51991-1 1-378)”, “binds”; as for “Indoleamine 2,3-dioxygenase 1 (from UniProt P14902 1-403)”, “binds”.

In the case of “Interleukin-1 receptor type 1 (from UniProt P14778 18-569)”, the binding result is given as “binds”. For “Isoform 2 of Unconventional myosin-Ic (from UniProt O00159-2 1-1028)”, the binding result was “binds”.

For the substance “Isoform 3 of LIM domain and actin-binding protein 1 (from UniProt Q9UHB6-3 1-457)”, the binding result is reported as “binds”. The entry for “Isoform 4 of Alpha-actinin-1 (from UniProt P12814-4 1-930)” is “binds”; for “Isoform 4 of Band 4.1-like protein 5 (from UniProt Q9HCM4-4 1-687)” it is “binds”. The entry for “Isoform 8 of Filamin-B (from UniProt O75369-8 1-2633)” is “binds”; for “Isoform Mitochondrial of Lysine–tRNA ligase (from UniProt Q15046-2 1-625)” it is “binds”; for Lamin-B1 (from UniProt P20700 1-586) it is “binds”. As for “Microtubule-associated protein 4 (from UniProt P27816-1 1-1152)”, the entry is “binds”; as for Nesprin-1 (from UniProt Q8NF91 1-8797), “binds”; as for “Poly(RC)-binding protein 1 (from UniProt Q15365 1-356)”, “binds”. Take “Protein regulator of cytokinesis 1 (from UniProt O43663-1 1-620)”: the binding result is “binds”. The entry for “Putative 60 S ribosomal protein L13a protein RPL13AP3 (from UniProt Q6NVV1 1-102)” is “binds”; for “RNA binding motif protein, X-linked-like-1 (from UniProt Q96E39 1-390)” it is “binds”; for “Ras GTPase-activating protein-binding protein 1 (from UniProt Q13283 1-466)” it is “binds”. As for “SLIT-ROBO Rho GTPase-activating protein 2 (from UniProt O75044 1-1071)”, the entry is “binds”; as for “Serine/threonine-protein phosphatase PP1-beta catalytic subunit (from UniProt P62140 1-327)”, “binds”; as for “Spectrin beta chain, non-erythrocytic 1 (from UniProt Q01082-1 1-2364)”, “binds”. In the case of “Stress-70 protein, mitochondrial (from UniProt P38646 47-679)”, the binding result is “binds”. As for “Target of EGR1 protein 1 (from UniProt Q96GM8 1-510)”, the entry is “binds”. Take “Tight junction protein ZO-1 (from UniProt Q07157 1-1748)”: the binding entry was “binds”.

With “UPF0488 protein C8orf33 (from UniProt Q9H7E9-1 1-229)”, the binding entry is on record as “binds”. As for “Unconventional myosin-Ib (from UniProt O43795 1-1136)”, the entry is “binds”; as for “exosome complex component RRP40 (from UniProt Q9NQT5 1-275)”, “binds”. The entry for “immunoglobulin kappa variable 3D-7 (from UniProt A0A0C4DH55 24-119)” is “binds”; for “probable ATP-dependent RNA helicase DDX5 (from UniProt P17844 1-614)” it is “binds”.

As for “splicing factor 3B subunit 1 (from UniProt O75533-1 1-1304)”, the binding result is reported as “binds”. Take “voltage-dependent anion-selective channel protein 1 (from UniProt P21796 1-283)”: the binding result is listed as “binds”.
